Tests used:
[1] = target: rSmCA (recombinant SmCA, α-carbonic anhydrase) (Schistosoma mansoni, UniProt A0A3Q0KSG2); assay: biochemical
[2] = target: recombinant human isoform hCA II; details: read-out: Ki hCAII; cited from earlier work

Sequences of proteins named here, by UniProt entry; tags and fusion partners are left off. Residues count along the entry.
UniProt A0A3Q0KSG2, 21-298 limits assumed: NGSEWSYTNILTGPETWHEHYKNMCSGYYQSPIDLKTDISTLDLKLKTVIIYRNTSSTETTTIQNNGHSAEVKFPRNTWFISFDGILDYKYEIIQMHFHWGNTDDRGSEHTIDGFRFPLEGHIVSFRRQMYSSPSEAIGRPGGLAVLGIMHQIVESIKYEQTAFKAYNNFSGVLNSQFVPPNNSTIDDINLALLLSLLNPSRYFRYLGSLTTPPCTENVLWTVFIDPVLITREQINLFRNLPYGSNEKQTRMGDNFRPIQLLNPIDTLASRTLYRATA

| SMILES | Ki [1] | Ki [2] |
| --- | --- | --- |
| CC(=O)Nc1nnc(S(N)(=O)=O)s1 [AAZ, acetazolamide] | 42.5 nM | – |
| CCN[C@H]1C[C@H](C)S(=O)(=O)c2sc(S(N)(=O)=O)cc21 [DZA, dorzolamide] | – | 8 nM |

— article PMC6728359, “Crystal structure and chemical inhibition of essential schistosome host-interactive virulence factor carbonic anhydrase SmCA” (Communications Biology, 2019)
